Laboratory results from the supplement of paper PMC10849652.
This is one part of the list.

Amino acid sequences for entries named in this document (tags omitted). A change or cut given only in a name is not applied to a line headed by its entry.
UniProt P49368: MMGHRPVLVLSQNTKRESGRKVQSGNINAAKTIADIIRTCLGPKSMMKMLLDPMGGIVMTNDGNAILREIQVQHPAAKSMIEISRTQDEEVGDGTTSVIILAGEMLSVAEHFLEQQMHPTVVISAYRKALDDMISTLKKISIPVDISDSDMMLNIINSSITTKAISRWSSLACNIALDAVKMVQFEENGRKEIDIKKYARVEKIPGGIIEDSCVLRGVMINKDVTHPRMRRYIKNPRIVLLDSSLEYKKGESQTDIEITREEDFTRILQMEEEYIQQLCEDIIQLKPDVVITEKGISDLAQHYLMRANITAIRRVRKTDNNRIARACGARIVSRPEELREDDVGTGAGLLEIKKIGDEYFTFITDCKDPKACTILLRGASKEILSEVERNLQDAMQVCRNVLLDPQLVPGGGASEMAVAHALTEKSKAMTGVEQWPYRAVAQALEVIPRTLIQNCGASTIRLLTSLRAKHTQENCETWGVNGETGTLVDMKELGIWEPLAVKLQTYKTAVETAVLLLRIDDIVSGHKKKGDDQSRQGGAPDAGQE
UniProt Q96CT7: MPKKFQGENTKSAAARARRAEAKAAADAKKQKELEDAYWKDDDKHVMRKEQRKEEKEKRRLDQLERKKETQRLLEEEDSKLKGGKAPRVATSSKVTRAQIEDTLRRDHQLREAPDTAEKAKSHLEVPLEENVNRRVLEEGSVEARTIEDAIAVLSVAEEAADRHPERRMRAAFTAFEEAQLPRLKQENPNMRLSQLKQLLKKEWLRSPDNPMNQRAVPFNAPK
UniProt Q75N03: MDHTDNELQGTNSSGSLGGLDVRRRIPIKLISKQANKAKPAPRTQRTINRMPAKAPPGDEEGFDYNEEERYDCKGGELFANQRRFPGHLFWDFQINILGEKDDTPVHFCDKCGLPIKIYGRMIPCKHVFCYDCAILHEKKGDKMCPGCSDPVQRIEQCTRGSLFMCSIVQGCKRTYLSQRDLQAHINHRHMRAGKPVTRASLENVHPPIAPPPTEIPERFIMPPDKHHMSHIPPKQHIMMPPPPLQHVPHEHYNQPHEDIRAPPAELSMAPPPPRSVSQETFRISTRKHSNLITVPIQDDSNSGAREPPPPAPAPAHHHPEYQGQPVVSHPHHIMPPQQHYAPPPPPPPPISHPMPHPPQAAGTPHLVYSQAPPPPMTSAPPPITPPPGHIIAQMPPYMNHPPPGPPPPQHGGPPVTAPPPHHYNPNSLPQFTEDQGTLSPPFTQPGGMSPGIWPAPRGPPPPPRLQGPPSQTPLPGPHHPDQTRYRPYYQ
UniProt P60953, whole entry, looked up: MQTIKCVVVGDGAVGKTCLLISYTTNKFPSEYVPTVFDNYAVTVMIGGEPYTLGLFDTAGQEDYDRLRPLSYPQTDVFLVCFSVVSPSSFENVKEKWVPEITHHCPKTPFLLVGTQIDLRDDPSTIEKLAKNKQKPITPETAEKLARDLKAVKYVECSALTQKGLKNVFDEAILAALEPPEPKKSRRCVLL
UniProt Q16204: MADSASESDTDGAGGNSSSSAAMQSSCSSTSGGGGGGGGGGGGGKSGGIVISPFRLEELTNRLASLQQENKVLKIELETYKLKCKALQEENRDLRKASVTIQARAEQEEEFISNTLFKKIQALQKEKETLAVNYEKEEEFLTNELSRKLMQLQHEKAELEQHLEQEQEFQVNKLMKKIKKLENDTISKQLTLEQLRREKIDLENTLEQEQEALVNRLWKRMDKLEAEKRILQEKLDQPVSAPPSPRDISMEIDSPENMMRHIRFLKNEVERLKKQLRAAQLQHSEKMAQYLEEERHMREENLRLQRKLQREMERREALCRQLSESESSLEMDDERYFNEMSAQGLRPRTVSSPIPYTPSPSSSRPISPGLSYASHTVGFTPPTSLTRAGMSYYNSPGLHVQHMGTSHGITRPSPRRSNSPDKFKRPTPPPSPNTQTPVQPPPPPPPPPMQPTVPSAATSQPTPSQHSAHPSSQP
UniProt P50990: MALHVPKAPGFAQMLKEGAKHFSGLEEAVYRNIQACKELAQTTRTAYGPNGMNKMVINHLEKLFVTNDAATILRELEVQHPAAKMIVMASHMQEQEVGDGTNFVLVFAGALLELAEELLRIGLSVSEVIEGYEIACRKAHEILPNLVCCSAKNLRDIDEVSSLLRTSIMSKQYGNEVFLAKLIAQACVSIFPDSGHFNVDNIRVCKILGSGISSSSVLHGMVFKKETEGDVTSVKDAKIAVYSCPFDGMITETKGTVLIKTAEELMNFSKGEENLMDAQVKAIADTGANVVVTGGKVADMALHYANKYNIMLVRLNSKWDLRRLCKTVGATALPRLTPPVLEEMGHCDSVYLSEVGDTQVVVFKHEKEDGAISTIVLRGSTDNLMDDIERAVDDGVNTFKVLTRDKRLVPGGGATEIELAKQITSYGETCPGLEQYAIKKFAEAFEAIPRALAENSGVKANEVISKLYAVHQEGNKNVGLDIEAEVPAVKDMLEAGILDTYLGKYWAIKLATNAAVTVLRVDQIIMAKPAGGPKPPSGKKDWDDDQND
UniProt Q9GZT6: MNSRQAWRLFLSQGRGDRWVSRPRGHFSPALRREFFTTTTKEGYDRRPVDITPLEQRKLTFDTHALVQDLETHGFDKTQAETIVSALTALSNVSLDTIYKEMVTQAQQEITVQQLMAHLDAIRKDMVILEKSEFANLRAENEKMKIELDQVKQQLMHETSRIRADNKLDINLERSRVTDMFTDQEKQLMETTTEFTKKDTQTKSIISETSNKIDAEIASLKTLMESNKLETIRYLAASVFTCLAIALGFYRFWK
UniProt Q96MW1: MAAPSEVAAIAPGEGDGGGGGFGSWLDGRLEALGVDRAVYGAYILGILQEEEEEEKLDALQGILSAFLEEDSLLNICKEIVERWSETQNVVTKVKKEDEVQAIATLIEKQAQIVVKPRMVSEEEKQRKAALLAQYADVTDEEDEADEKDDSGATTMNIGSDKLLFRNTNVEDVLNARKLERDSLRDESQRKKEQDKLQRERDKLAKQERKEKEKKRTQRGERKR
UniProt Q9BV29: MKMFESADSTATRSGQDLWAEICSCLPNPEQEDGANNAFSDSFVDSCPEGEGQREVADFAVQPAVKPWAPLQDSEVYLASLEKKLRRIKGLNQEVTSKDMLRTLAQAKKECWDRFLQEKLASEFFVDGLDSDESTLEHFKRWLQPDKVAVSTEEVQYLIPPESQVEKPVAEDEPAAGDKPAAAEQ
UniProt Q9BRT8: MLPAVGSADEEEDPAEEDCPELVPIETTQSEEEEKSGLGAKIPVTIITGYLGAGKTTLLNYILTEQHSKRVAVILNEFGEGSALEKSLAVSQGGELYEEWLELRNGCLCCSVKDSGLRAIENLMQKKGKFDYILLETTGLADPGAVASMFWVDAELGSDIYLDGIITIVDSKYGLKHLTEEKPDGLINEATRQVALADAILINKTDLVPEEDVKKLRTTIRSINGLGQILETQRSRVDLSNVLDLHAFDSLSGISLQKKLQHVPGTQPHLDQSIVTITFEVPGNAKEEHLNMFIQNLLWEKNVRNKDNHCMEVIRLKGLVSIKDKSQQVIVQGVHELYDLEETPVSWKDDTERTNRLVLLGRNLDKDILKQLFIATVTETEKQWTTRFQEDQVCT
UniProt Q9HA77: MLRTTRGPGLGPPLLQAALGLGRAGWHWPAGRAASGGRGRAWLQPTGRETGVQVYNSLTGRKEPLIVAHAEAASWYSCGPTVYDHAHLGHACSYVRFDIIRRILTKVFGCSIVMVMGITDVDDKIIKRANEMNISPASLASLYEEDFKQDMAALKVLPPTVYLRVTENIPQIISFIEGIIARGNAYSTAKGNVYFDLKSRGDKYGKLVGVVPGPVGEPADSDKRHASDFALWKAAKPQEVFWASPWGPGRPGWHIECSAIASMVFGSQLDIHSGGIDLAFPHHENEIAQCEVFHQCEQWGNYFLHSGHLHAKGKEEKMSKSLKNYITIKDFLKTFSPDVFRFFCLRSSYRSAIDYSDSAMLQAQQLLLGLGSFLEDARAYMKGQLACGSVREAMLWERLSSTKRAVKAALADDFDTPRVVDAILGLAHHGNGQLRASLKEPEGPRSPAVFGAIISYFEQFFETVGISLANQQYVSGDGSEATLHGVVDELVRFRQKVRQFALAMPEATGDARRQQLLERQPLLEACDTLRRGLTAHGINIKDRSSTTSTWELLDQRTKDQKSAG
UniProt Q7Z6B0: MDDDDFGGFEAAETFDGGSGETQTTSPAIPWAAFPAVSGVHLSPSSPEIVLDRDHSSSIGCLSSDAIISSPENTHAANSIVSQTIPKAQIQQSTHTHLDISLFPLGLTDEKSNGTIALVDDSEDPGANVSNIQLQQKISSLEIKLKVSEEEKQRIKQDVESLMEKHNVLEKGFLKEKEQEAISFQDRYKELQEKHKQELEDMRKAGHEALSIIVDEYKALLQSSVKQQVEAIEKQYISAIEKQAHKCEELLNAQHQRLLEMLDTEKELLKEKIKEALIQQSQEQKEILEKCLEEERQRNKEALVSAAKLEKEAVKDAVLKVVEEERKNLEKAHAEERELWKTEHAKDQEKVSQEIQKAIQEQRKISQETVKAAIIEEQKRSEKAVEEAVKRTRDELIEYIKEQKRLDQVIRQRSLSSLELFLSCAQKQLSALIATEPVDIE
UniProt Q9H6F5: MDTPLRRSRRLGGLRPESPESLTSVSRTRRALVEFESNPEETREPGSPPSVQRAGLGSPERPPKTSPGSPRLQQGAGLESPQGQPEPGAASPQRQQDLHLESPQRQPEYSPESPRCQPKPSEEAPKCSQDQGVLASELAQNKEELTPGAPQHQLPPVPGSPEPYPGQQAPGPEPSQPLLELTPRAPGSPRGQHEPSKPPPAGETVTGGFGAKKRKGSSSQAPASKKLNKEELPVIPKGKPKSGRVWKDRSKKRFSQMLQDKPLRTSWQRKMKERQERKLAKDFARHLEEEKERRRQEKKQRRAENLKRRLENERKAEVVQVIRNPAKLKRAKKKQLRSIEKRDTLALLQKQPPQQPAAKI
UniProt A6NKD9: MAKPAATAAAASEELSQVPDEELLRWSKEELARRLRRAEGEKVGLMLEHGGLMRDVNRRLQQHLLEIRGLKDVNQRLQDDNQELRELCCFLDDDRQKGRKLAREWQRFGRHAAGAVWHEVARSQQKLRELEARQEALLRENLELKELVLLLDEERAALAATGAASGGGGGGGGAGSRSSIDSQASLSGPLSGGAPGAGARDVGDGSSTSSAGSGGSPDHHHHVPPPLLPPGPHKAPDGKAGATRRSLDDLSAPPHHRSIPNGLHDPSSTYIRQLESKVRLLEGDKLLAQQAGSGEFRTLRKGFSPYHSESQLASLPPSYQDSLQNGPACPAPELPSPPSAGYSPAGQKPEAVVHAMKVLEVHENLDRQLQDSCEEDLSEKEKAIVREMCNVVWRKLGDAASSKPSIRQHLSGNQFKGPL
UniProt P15529: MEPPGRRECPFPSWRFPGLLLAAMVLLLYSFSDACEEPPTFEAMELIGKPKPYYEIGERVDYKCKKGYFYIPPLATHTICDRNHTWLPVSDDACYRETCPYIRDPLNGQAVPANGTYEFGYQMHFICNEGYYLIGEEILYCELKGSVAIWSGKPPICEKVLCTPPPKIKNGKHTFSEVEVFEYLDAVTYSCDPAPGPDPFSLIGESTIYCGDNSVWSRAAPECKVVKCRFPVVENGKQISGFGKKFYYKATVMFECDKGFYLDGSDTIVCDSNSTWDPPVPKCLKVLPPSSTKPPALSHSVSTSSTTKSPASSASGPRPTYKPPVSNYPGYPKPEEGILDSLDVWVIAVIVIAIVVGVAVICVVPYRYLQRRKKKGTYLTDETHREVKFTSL
UniProt P13987: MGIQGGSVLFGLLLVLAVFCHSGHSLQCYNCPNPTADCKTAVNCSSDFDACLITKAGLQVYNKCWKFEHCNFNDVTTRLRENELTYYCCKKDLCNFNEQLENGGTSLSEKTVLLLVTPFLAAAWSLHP
UniProt Q96A33: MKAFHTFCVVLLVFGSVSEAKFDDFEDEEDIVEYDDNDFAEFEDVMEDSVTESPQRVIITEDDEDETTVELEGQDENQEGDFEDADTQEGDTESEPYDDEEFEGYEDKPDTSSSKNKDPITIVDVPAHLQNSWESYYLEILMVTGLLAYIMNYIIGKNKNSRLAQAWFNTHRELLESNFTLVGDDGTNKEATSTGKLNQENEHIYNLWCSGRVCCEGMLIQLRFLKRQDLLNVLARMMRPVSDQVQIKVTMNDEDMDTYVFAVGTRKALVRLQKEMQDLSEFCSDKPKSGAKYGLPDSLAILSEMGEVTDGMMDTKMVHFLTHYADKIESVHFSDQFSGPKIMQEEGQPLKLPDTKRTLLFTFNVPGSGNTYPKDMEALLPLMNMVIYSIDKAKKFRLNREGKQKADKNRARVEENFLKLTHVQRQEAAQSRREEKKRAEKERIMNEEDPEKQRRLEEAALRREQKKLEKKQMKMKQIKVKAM
UniProt P49427: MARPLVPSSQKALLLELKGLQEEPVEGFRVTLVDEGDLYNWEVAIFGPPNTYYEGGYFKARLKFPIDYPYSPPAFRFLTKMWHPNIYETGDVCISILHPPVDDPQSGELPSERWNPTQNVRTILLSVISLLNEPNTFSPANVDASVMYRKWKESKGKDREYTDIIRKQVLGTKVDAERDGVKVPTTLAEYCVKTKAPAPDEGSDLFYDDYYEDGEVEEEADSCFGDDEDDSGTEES

Key:
Test in all cases: log2 fold change, soluble protein after heating vs DMSO (PISA); higher = thermal stabilisation; K562 cells, 10 uM, 30 min; active = over 0.2 and 3.5 SD of the protein, either way, in both replicates (recomputed)
saracatinib = compound: CN1CCN(CCOc2cc(OC3CCOCC3)c3c(Nc4c(Cl)ccc5c4OCO5)ncnc3c2)CC1 [saracatinib]
Summary of the method: (§1)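 K562 cells at 2×10^6 cells/mL were treated with 10 μM compound for 30 min. Aliquots were heated for 3 min across 48°C-58°C, pooled, and extracted in PBS with 0.5% NP-40 at 4°C; soluble protein was the supernatant after 21,000xg for 90 min. Soluble protein was quantified by TMTpro 16plex LC-MS/MS with channel sums equalised, and reported as log2 fold change in thermal stability against DMSO controls, with values from duplicates.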

sotrastaurin = compound: CN1CCN(c2nc(C3=C(c4c[nH]c5ccccc45)C(=O)NC3=O)c3ccccc3n2)CC1 [sotrastaurin]
Summary of the method: as §1

alvocidib = compound: CN1CC[C@H](c2c(O)cc(O)c3c(=O)cc(-c4ccccc4Cl)oc23)[C@H](O)C1 [alvocidib]
Summary of the method: as §1

Tubastatin A = compound: CN1CCc2c(c3ccccc3n2Cc2ccc(C(=O)NO)cc2)C1 [Tubastatin A]
Summary of the method: as §1

[1] = compound: CNC(=O)C1=CC=CC=C1NC2=NC(=NC=C2Cl)NC3=C(C=C(C=C3)N4CCOCC4)OC
Summary of the method: as §1

defactinib = compound: CNC(=O)c1ccc(Nc2ncc(C(F)(F)F)c(NCc3nccnc3N(C)S(C)(=O)=O)n2)cc1 [defactinib]
Summary of the method: as §1

rucaparib = compound: CNCc1ccc(-c2[nH]c3cc(F)cc4c3c2CCNC4=O)cc1 [rucaparib]
Summary of the method: as §1

[2] = compound: CNc1nc(-c2ccc3c(N)n[nH]c3c2)cc(N2C[C@@H](C(=O)NC3CCCCC3)CC[C@H]2C)n1
Summary of the method: as §1

encorafenib = compound: COC(=O)N[C@@H](C)CNc1nccc(-c2cn(C(C)C)nc2-c2cc(Cl)cc(NS(C)(=O)=O)c2F)n1 [encorafenib]
Summary of the method: as §1

[3] = compound: COC(=O)[C@H](CCSC)NC(=O)C1=C(C=C(C=C1)NC[C@H](CS)N)C2=CC=CC=C2
Summary of the method: as §1

Measured: log2 fold change

CCT3 (UniProt P49368)
inactive: saracatinib 0.015 | sotrastaurin 0.052 | alvocidib 0.001 | Tubastatin A -0.024 | [1] -0.025 | defactinib 0.003 | rucaparib 0.02 | [2] -0.018 | encorafenib -0.005 | [3] 0.023

CCDC124 (UniProt Q96CT7)
inactive: saracatinib -0.014 | sotrastaurin 0.066 | alvocidib 0.067 | Tubastatin A 0.008 | [1] -0.017 | defactinib 0.042 | rucaparib 0.025 | [2] -0.017 | encorafenib -0.001 | [3] 0.018

CC2D1B isoform 2 (UniProt Q5T0F9)
inactive: saracatinib 0.037 | sotrastaurin -0.023 | alvocidib -0.062 | Tubastatin A -0.025 | [1] -0.048 | defactinib -0.079 | rucaparib -0.021 | [2] 0.027 | encorafenib 0.032 | [3] 0.021

CBLL1 (UniProt Q75N03)
inactive: saracatinib -0.023 | sotrastaurin 0.127 | alvocidib -0.123 | Tubastatin A -0.064 | [1] 0.014 | defactinib -0.031 | rucaparib 0.002 | [2] 0.153 | encorafenib 0.027 | [3] 0.082

CDC42 isoform 1 (UniProt P60953)
inactive: saracatinib 0.031 | sotrastaurin 0.041 | alvocidib 0.05 | Tubastatin A 0.003 | [1] -0.016 | defactinib -0.006 | rucaparib -0.154 | [2] -0.015 | encorafenib 0.024 | [3] 0.105

CCDC88A (UniProt Q3V6T2)
inactive: saracatinib -0.222 | sotrastaurin 0.112 | alvocidib -0.073 | Tubastatin A 0.094 | [1] 0.032 | defactinib -0.105 | rucaparib -0.135 | [2] 0.017 | encorafenib 0.033 | [3] -0.072

CDC42 (UniProt P60953)
inactive: saracatinib 0.02 | sotrastaurin 0.039 | alvocidib -0.106 | Tubastatin A -0.04 | [1] 0.129 | defactinib 0.028 | rucaparib 0.075 | [2] 0.012 | encorafenib -0.201 | [3] 0.076

CCDC6 (UniProt Q16204)
inactive: saracatinib -0.009 | sotrastaurin 0.015 | alvocidib -0.016 | Tubastatin A 0.017 | [1] -0.021 | defactinib -0.041 | rucaparib -0.061 | [2] -0.022 | encorafenib -0.031 | [3] 0.007

CCT8 (UniProt P50990)
inactive: saracatinib 0.007 | sotrastaurin 0.014 | alvocidib 0.008 | Tubastatin A -0.001 | [1] -0.03 | defactinib 0.004 | rucaparib -0.045 | [2] 0.009 | encorafenib 0.014 | [3] 0.001

CCDC90B (UniProt Q9GZT6)
inactive: saracatinib 0 | sotrastaurin 0.137 | alvocidib 0.025 | Tubastatin A 0.009 | [1] 0.012 | defactinib 0.013 | rucaparib -0.022 | [2] -0.016 | encorafenib -0.033 | [3] -0.013

CCDC43 (UniProt Q96MW1)
inactive: saracatinib 0.081 | sotrastaurin 0.008 | alvocidib -0.108 | Tubastatin A 0.01 | [1] -0.043 | defactinib -0.047 | rucaparib -0.118 | [2] -0.049 | encorafenib 0.039 | [3] 0.025

CASP6 (UniProt P55212)
inactive: saracatinib 0.009 | sotrastaurin -0.009 | alvocidib -0.02 | Tubastatin A -0.047 | [1] -0.056 | defactinib 0.001 | rucaparib -0.033 | [2] -0.009 | encorafenib -0.029 | [3] 0.004

CCDC32 isoform 2 (UniProt Q9BV29)
inactive: saracatinib -0.031 | sotrastaurin -0.008 | alvocidib -0.013 | Tubastatin A 0.086 | [1] -0.069 | defactinib 0.025 | rucaparib -0.012 | [2] -0.086 | encorafenib -0.009 | [3] 0.066

CCDC174 (UniProt Q6PII3)
inactive: saracatinib 0.017 | sotrastaurin 0.065 | alvocidib 0.025 | Tubastatin A 0.072 | [1] -0.013 | defactinib -0.038 | rucaparib 0.06 | [2] 0.011 | encorafenib -0.035 | [3] 0.033

CBWD1 (UniProt Q9BRT8)
inactive: saracatinib -0.125 | sotrastaurin -0.092 | alvocidib 0.011 | Tubastatin A 0.113 | [1] -0.054 | defactinib 0.126 | rucaparib 0.144 | [2] 0.107 | encorafenib 0.031 | [3] -0.18

CD3EAP isoform 2 (UniProt O15446)
inactive: saracatinib -0.003 | sotrastaurin 0 | alvocidib 0.094 | Tubastatin A -0.044 | [1] 0.024 | defactinib 0.148 | rucaparib 0.183 | [2] -0.01 | encorafenib 0.062 | [3] 0.089

CARS2 (UniProt Q9HA77)
inactive: saracatinib 0.037 | sotrastaurin 0.065 | alvocidib -0.026 | Tubastatin A -0.024 | [1] -0.022 | defactinib -0.01 | rucaparib 0.056 | [2] 0.022 | encorafenib 0.027 | [3] 0.017

Fetched one by one from the list above, 2 records:
CBWD1 (UniProt Q9BRT8)
inactive: saracatinib -0.125 | sotrastaurin -0.092 | alvocidib 0.011 | Tubastatin A 0.113 | [1] -0.054 | defactinib 0.126 | rucaparib 0.144 | [2] 0.107 | encorafenib 0.031 | [3] -0.18

CCT8 (UniProt P50990)
inactive: saracatinib 0.007 | sotrastaurin 0.014 | alvocidib 0.008 | Tubastatin A -0.001 | [1] -0.03 | defactinib 0.004 | rucaparib -0.045 | [2] 0.009 | encorafenib 0.014 | [3] 0.001

Carrying on:

CCDC91 (UniProt Q7Z6B0)
inactive: saracatinib 0.017 | sotrastaurin 0.026 | alvocidib -0.02 | Tubastatin A -0.018 | [1] 0.012 | defactinib 0.027 | rucaparib -0.047 | [2] -0.026 | encorafenib -0.036 | [3] -0.001

CCDC86 (UniProt Q9H6F5)
inactive: saracatinib -0.08 | sotrastaurin -0.109 | alvocidib 0.367 | Tubastatin A 0.078 | [1] 0.043 | defactinib 0.288 | rucaparib 0.162 | [2] 0.033 | encorafenib 0.107 | [3] -0.026

CD320 (UniProt Q9NPF0)
inactive: saracatinib -0.001 | sotrastaurin 0.001 | alvocidib -0.019 | Tubastatin A -0.027 | [1] 0.006 | defactinib 0.058 | rucaparib 0.03 | [2] -0.083 | encorafenib 0.025 | [3] 0.058

CCDC85C (UniProt A6NKD9)
inactive: saracatinib -0.042 | sotrastaurin -0.418 | alvocidib 0.03 | Tubastatin A 0.061 | defactinib 0.016 | rucaparib 0.016 | [2] -0.158 | encorafenib -0.166 | [3] -0.008

CCPG1 isoform 5 (UniProt Q9ULG6)
inactive: saracatinib -0.124 | sotrastaurin -0.07 | alvocidib 0.109 | Tubastatin A 0.193 | [1] -0.045 | defactinib 0.1 | rucaparib 0.042 | [2] -0.049 | encorafenib 0.103 | [3] -0.001

CDC16 (UniProt Q13042)
inactive: saracatinib 0.015 | sotrastaurin -0.031 | alvocidib -0.03 | Tubastatin A 0.022 | [1] 0.042 | defactinib -0.028 | rucaparib -0.028 | [2] -0.043 | encorafenib 0.073 | [3] -0.01

CD46 isoform 2 (UniProt P15529)
inactive: saracatinib -0.053 | sotrastaurin 0.052 | alvocidib -0.016 | Tubastatin A -0.024 | [1] -0.045 | defactinib -0.077 | rucaparib -0.052 | [2] 0.013 | encorafenib 0.015 | [3] 0.029

CD59 isoform 2 (UniProt P13987)
inactive: saracatinib 0.064 | sotrastaurin 0.027 | alvocidib 0.056 | Tubastatin A -0.058 | [1] -0.056 | defactinib -0.028 | rucaparib 0.072 | [2] -0.015 | encorafenib -0.014 | [3] 0.025

CARM1 (UniProt Q86X55)
inactive: saracatinib 0.039 | sotrastaurin 0.041 | alvocidib -0.012 | Tubastatin A -0.027 | [1] -0.014 | defactinib 0.003 | rucaparib -0.047 | [2] -0.041 | encorafenib 0.008 | [3] -0.01

CASC4 (UniProt Q6P4E1)
inactive: saracatinib 0.006 | sotrastaurin 0.047 | alvocidib 0 | Tubastatin A -0.067 | [1] 0.051 | defactinib -0.017 | rucaparib -0.049 | [2] -0.041 | encorafenib 0.027 | [3] 0.013

CCDC47 (UniProt Q96A33)
inactive: saracatinib -0.017 | sotrastaurin 0.014 | alvocidib -0.009 | Tubastatin A 0.019 | [1] 0.004 | defactinib -0.045 | rucaparib -0.03 | [2] -0.022 | encorafenib -0.012 | [3] -0.007

CCDC127 (UniProt Q96BQ5)
inactive: saracatinib -0.016 | sotrastaurin 0.144 | alvocidib 0.049 | Tubastatin A 0.023 | [1] 0.032 | defactinib -0.016 | rucaparib -0.022 | [2] -0.065 | encorafenib -0.056 | [3] 0.028

CDC34 (UniProt P49427)
inactive: saracatinib -0.094 | sotrastaurin -0.138 | alvocidib 0.044 | Tubastatin A -0.111 | [1] 0.003 | defactinib -0.237 | rucaparib 0.092 | [2] -0.072 | encorafenib 0.098 | [3] -0.027
